From publication doi:10.1101/2025.02.21.639304
No constants are given. Whether binding was seen depends on the method and setting. In cells and extracts the contact can be indirect. Some entries that bind do so weakly or less than the wild type.

The chains behind the UniProt entries cited, without tags or fusion partners. Where a name states a change or a piece, a line headed by the entry shows the natural chain unless it says otherwise.
UniProt O60674: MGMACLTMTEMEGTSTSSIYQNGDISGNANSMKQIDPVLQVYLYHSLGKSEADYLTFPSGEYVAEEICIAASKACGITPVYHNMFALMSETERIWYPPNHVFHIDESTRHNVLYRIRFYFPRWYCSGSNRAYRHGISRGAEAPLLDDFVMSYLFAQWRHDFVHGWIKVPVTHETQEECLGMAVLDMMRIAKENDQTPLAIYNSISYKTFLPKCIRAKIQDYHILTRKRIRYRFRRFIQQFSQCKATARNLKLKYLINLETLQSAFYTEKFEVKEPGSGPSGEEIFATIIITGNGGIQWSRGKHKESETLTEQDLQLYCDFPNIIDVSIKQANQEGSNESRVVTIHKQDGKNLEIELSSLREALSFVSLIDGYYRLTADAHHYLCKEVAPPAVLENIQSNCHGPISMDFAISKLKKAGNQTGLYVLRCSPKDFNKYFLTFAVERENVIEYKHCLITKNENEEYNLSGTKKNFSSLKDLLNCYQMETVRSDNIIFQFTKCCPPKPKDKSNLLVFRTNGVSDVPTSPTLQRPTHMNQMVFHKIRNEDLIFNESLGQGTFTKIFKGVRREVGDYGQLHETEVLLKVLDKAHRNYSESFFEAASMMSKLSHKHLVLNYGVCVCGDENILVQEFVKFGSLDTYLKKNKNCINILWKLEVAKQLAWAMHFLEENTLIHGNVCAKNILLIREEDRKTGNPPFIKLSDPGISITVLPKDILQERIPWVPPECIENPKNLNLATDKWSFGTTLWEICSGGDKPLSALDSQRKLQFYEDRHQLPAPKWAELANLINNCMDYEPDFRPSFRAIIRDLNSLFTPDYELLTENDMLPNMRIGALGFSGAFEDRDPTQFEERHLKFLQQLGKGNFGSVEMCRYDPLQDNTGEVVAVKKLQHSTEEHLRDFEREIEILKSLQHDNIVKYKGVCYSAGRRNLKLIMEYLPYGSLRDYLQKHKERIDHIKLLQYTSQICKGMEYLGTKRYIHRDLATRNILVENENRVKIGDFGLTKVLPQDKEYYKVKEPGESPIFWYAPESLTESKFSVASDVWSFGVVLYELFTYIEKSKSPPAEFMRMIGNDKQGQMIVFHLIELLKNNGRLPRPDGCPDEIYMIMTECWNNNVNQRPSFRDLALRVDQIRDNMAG
UniProt P42224: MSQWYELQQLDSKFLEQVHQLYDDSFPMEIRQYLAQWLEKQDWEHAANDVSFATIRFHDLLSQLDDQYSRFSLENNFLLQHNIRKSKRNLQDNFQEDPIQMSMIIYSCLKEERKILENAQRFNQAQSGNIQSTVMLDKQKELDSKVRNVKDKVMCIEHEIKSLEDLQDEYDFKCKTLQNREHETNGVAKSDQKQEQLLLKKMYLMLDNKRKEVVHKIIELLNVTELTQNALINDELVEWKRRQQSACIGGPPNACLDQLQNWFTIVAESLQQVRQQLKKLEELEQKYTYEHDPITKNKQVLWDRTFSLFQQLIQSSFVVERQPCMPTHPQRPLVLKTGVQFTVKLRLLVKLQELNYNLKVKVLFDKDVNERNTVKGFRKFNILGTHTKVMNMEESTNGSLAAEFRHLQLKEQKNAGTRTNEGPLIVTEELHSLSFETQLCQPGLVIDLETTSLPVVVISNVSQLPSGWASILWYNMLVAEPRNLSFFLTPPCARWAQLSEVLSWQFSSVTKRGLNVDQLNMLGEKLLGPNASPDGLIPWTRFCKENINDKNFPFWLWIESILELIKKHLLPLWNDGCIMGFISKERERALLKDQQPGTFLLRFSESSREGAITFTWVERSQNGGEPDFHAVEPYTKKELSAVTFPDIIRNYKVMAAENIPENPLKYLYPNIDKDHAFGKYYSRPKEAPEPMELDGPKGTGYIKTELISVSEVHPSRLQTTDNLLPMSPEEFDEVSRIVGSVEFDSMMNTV

Target: JAK2 (human (endogenous in TF-1, F36P)) (UniProt O60674)
Assay: co-IP

Substance: STAT1 (from UniProt P42224 1-750)
- binding: binds
